# Assay results as given in paper PMC7819943, “Rice protein-binding microarrays: a tool to detect cis-acting elements near promoter regions in rice”.
# This is one part of the list.
# Molecular target: T1, OsSMF1 (Oryza sativa, UniProt Q6ZLB0 1-436)
# T1 sequence: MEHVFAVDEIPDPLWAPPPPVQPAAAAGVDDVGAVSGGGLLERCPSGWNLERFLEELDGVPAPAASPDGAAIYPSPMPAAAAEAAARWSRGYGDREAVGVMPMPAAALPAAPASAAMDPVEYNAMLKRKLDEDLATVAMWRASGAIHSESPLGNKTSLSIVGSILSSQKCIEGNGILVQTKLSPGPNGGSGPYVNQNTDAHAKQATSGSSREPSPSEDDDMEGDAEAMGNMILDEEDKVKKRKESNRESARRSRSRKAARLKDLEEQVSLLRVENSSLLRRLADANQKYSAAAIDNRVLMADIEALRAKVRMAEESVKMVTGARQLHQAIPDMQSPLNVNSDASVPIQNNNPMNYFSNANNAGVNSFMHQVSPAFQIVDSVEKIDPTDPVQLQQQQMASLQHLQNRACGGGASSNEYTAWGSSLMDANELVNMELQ
# Assay: protein-binding microarray (RPBM); PBS, 2% BSA, 51.3 ng/ul salmon testes DNA, 50 uM zinc acetate, 200 nM TF, 25 C, 1 h; high values mean tight binding
# Details: protein: recombinant; tags: N-terminal polyhistidine and DsRed monomer fusion (pET32a); chain copies: 2; label: CyDye5-dUTP incorporated in the synthesized complementary strand; 3' TTTTT single-stranded linker to array surface; dsDNA, one strand shown
# Outline: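 Using Ni–NTA, transcription factors fused N-terminally to polyhistidine and DsRed were purified after expression in E. coli BL21-CodonPlus. These were incubated at 200 nM with a blocked, double-stranded custom Agilent array for 1 h at 25 °C in a buffer containing 50 µM zinc acetate, and the array was washed. The binding signal is per-feature fluorescence intensity (arbitrary units) on an Axon 4000B scanner.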
row,Sequence,binding signal
1,TATGAATGGAAAGTCTGACCCATATGTTGTACTTTCACTCCGGAGTCACCTAGTGCAG,4500 fluorescence intensity (a.u.)
2,TGACGACGATCGTCGTCATGTACCCCGGCGCGATCTTGACCGGAGTCACCTAGTGCAG,4230 fluorescence intensity (a.u.)
3,TCGACCTTTTCAGCATTACTAGTTTACTACCTTTTCTTATCGGAGTCACCTAGTGCAG,26900 fluorescence intensity (a.u.)
4,AGGCCATCATCACTTTAGTCTTATTTTCGTCACCATCATCCGGAGTCACCTAGTGCAG,3560 fluorescence intensity (a.u.)
5,CCATATCATATTACTCCTACATGTGTACTACATTTATATTCGGAGTCACCTAGTGCAG,3720 fluorescence intensity (a.u.)
6,TCATGTACCACTTTTGTTATGGTAATGTGTCATGTACCTTCGGAGTCACCTAGTGCAG,3680 fluorescence intensity (a.u.)
7,TATCATTAAGTGAAAAGTGGCTATAGCCTTGGTCTATTTGCGGAGTCACCTAGTGCAG,3750 fluorescence intensity (a.u.)
8,TATATATATATATATATATATATATAGTAGCAGTAGCAGTCGGAGTCACCTAGTGCAG,3240 fluorescence intensity (a.u.)
9,CTGTTGGCACTTACACAATCACATTCACATTTGGTGTTTTCGGAGTCACCTAGTGCAG,3220 fluorescence intensity (a.u.)
10,CATCCATGACCATGGAATCGGCGTGCCACAAGGTGAGCGGCGGAGTCACCTAGTGCAG,3340 fluorescence intensity (a.u.)
11,TGCATAAGGATAATCCGGTCGTCAGCAAACAATGCATTCACGGAGTCACCTAGTGCAG,3450 fluorescence intensity (a.u.)
12,TTCCGCCACATCAGGGAGGACGAGGTGACGGCGCGGGTGGCGGAGTCACCTAGTGCAG,3160 fluorescence intensity (a.u.)
13,CACCTAGCATGCATAGGACGAGGCATTTAATTTTACTTATCGGAGTCACCTAGTGCAG,22000 fluorescence intensity (a.u.)
14,CCTGTAGCTCTCATGTTGCATGACTGTAACAACATGTGCACGGAGTCACCTAGTGCAG,4700 fluorescence intensity (a.u.)
15,AGTTAAAAGAGCATGAATTAAATAGCATCGATCTGAGGTGCGGAGTCACCTAGTGCAG,3280 fluorescence intensity (a.u.)
16,GAAATATAATGCCACAACACAATGTTATACACGTACGAGTCGGAGTCACCTAGTGCAG,3530 fluorescence intensity (a.u.)
17,GGATGCCGAGTCAGACACACGGTGGATTTTCATTTTATATCGGAGTCACCTAGTGCAG,7740 fluorescence intensity (a.u.)
18,ACGCACCTGCACATTTGGAACTTGTACTACACGTGTTTCACGGAGTCACCTAGTGCAG,5000 fluorescence intensity (a.u.)
19,GACTCCTCGGCCACCTCCTTCCGCTGCGCCACCGCCGCCGCGGAGTCACCTAGTGCAG,3580 fluorescence intensity (a.u.)
20,CCATTCTCGTTTTCCACGGCTCAACCGCTCTCTTCGCTCGCGGAGTCACCTAGTGCAG,3370 fluorescence intensity (a.u.)
21,ACATCCTATCCCGTGCATTGAATCAGCATTGTACAGCAAACGGAGTCACCTAGTGCAG,3370 fluorescence intensity (a.u.)
22,CGCCGACTTCGCGACGCCACGCTGTCTTTGACCGGCTCCGCGGAGTCACCTAGTGCAG,3880 fluorescence intensity (a.u.)
23,ACCATGTTTGGTCCTTAGTACTTACTACCTCCGTATTTTACGGAGTCACCTAGTGCAG,25000 fluorescence intensity (a.u.)

# 2 records picked at random from the list so far:
row,Sequence,binding signal
1,TATGAATGGAAAGTCTGACCCATATGTTGTACTTTCACTCCGGAGTCACCTAGTGCAG,4500 fluorescence intensity (a.u.)
16,GAAATATAATGCCACAACACAATGTTATACACGTACGAGTCGGAGTCACCTAGTGCAG,3530 fluorescence intensity (a.u.)
